Results reported in PubChem BioAssay AID1347075 (National Center for Advancing Translational Sciences (NCATS), 2019).
Hit rate of the full screen: of about 400,000 compounds, about 5,500 (1.4%) were called active. The inconclusive results got no clear call from the source; some entries with a clear call stand among them for comparison. Calls come from the whole dose curve; as a rule, active = well fitted cell-killing curve with a large enough effect; inconclusive = small, poorly fitted or top-dose-only effect, or effect the other way; inactive = flat fitted curve, though single readings scatter. Potencies beside an inconclusive call are fits to weak or partial responses and may not hold up.

test: qHTS assay for MDR1-selective chemotherapeutics: Primary screen using the parental adenocarcinoma cell KB-3-1; conditions: KB-3-1 viability, CellTiter-Glo ATP luminescence, 72 h; activity change, negative = cytotoxic: at 46.1 µM (top of the series); note: nearly all actives have a fitted effect of over 60% in size
Outline: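 Parental KB-3-1 viability, qHTS format: 72 h compound exposure, 37 °C; CellTiter-Glo; media-only wells and DMSO plates as controls; concentration-effect fits on corrected data.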
% is set by controls: 0 for no effect and ±100 for the full control effect; potency is the fitted concentration of half-maximal effect.

Which Potency does the source give for `CCOC(=O)C1=CC[C@@H](c2ccccc2)N(S(=O)(=O)c2ccc(C)cc2)[C@H]1c1ccc(C#N)cc1` here?
Its Potency is “inactive”.

For `Clc1ccc(OCCn2cnc3ccccc32)c(Cl)c1`, which Potency is on record?
Its Potency is inconclusive: 20.6 µM [cytotoxic, single point].

With `CCN1C(=O)[C@@H]2[C@@H](c3ccc(-c4ccc(Cl)c(Cl)c4)c(OC)c3)N3CCCC[C@@]3(C(=O)OC)[C@@H]2C1=O` as the molecule, how does the Potency read?
Its Potency is inconclusive: 32.6 µM [cytotoxic, single point].

Which Potency does the source give for `CCCn1c(=N)n(CC(=O)c2ccc([N+](=O)[O-])cc2)c2ccccc21` here?
Its Potency is inconclusive: 1.3 µM [rising, full curve, poor fit].

With `O=[N+]([O-])c1nn(-c2ccc3c(c2)OCCO3)n(O)c1=NC1CCCCCC1` as the molecule, how does the Potency read?
The Potency was “inactive”.

Which Potency does the source give for `O=c1cc(-c2ccccc2)oc2cc(O)c(O)c(O)c12` here?
The Potency was inconclusive: 10.3 µM [cytotoxic, partial curve, poor fit].

Which Potency does the source give for `CC(C)C[C@H]1CNC(=S)N1CC1CCCN1C[C@H](Cc1ccccc1)N1C[C@H](Cc2ccc(O)cc2)N(CC2CCCCCC2)C1=S` (some centres undefined) here?
Its Potency is inconclusive: 25.9 µM [cytotoxic, single point].

With `COCc1cc(=O)[nH]c(SCCS(=O)(=O)c2ccc(Cl)cc2Cl)n1` as the molecule, how does the Potency read?
The Potency was inconclusive: 18.4 µM [cytotoxic, single point].

With `Cc1cc(C)nc(CCNC(=O)CC2C(=O)NCCN2Cc2ccccc2)n1` (centres undefined) as the molecule, how does the Potency read?
Its Potency is “inactive”.

With `COc1ccc(-c2noc(CSc3nnc(-c4ccncc4)n3-c3cccc(C)c3)n2)cc1OC` as the molecule, how does the Potency read?
The Potency was “inactive”.

With `Cc1ccc(OCC(=O)NCCNC(=O)c2cnccn2)cc1` as the molecule, how does the Potency read?
The Potency was “inactive”.

Which activity change, negative = cytotoxic does the source give for `CSc1ccccc1NC(=O)COc1ccc(Cl)cc1Cl` here?
Its activity change, negative = cytotoxic is inconclusive: -51.7%.

Which Potency does the source give for `O=C(Nc1ccc(Br)cn1)c1ccc(Br)s1` here?
The Potency was inconclusive: 16.4 µM [cytotoxic, single point].

With `CCOc1ccc(C(=O)C(CCC(CN(C)C)C(=O)c2ccc(OCC)cc2)CN(C)C)cc1` (centres undefined) as the molecule, how does the Potency read?
Its Potency is inconclusive: 2.59 µM [cytotoxic, full curve, poor fit].

With `COC(=O)C(NC(C)=O)(Nc1ccc(Br)cc1)C(=O)OC` as the molecule, how does the Potency read?
The Potency was inconclusive: 0.259 µM [cytotoxic, full curve].

For `C[C@H]1Cn2cnc(C(=O)Nc3ccc(CNC(=O)OC(C)(C)C)cc3)c2C(=O)N1`, which Potency is on record?
The Potency was inconclusive: 0.0046 µM [cytotoxic, full curve, poor fit].

Which Potency does the source give for `COc1ccc(NC(C)=O)cc1NS(=O)(=O)c1ccc2c(c1)OCCO2` here?
Its Potency is inconclusive: 32.6 µM [cytotoxic, single point].

With `COCCCNC(=O)c1c(N)n(/N=C/c2ccccn2)c2nc3ccccc3nc12` as the molecule, how does the Potency read?
Its Potency is “inactive”.

With `Cc1ccc(NS(=O)(=O)c2ccc(NC(=O)C(C)Sc3ccc(Cl)cc3)cc2)c(C)c1` (centres undefined) as the molecule, how does the Potency read?
Its Potency is inconclusive: 29.1 µM [cytotoxic, partial curve, poor fit].

Which Potency does the source give for `COc1ccc(CCC(=O)NCCc2csc(-c3cccc(F)c3)n2)cc1` here?
The Potency was “inactive”.

Which Potency does the source give for `O=C(O)CCCn1c(O)c(C=C2N=c3ccccc3=N2)sc1=S` here?
Its Potency is “inactive”.

For `CN[C@H](C)C(=O)NC[C@H]1O[C@@H](n2cc(C)c(=O)[nH]c2=O)C[C@@H]1O`, which Potency is on record?
The Potency was inconclusive: 2.91 µM [cytotoxic, full curve, poor fit].

Which Potency does the source give for `COc1ccc(Cl)cc1N(CC(=O)N/N=C/c1ccc(OCC(N)=O)cc1)S(C)(=O)=O` here?
The Potency was inconclusive: 29.1 µM [rising, single point].

For `O=C(c1[nH]nc2c1CCc1ccccc1-2)N1CCN(Cc2ccc3c(c2)OCO3)CC1`, which Potency is on record?
Its Potency is active: 11.6 µM.

With `CCN(CC)S(=O)(=O)c1ccc(OC)c(NC(=O)c2cc3c(=O)n4ccccc4nc3s2)c1` as the molecule, how does the Potency read?
The Potency was “inactive”.

With `Cc1cc(N2CCN(C)CC2)nc2ccc(NC(=O)Nc3ccccc3Cl)cc12` as the molecule, how does the Potency read?
The Potency was inconclusive: 29.1 µM [cytotoxic, single point].

For `Clc1cccc(-c2ccc(C3Nc4cccc5cccc(c45)N3)o2)c1`, which Potency is on record?
The Potency was inconclusive: 5.8 µM [rising, full curve].

With `CN(C)c1cccc(-c2nnc(SCC(=O)NCc3ccco3)n2C)c1` as the molecule, how does the activity change, negative = cytotoxic read?
Its activity change, negative = cytotoxic is inconclusive: 12.6%.

For `CCC1SC2=NC(C)=C(C(=O)OCCOC)C(/C=C/c3ccccc3OC)N2C1=O` (centres undefined), which Potency is on record?
The Potency was inconclusive: 16.4 µM [rising, partial curve, poor fit].

Which Potency does the source give for `CCNc1c(NC(=O)c2ccccc2OCC)c(=O)oc2ccccc12` here?
Its Potency is “inactive”.

With `O=C(NC1CCCCC1)c1cc2nc3c(c(C(F)(F)F)n2n1)CCCC3` as the molecule, how does the Potency read?
The Potency was inconclusive: 29.1 µM [cytotoxic, partial curve, poor fit].

For `Cc1cccc(N2CCN(C(=O)c3cn(C)c(=O)c4c3c3ccccc3n4C)CC2)c1C`, which Potency is on record?
The Potency was inconclusive: 28.2 µM [cytotoxic, single point].

For `COc1cccc(-c2nc(SC(C(C)=O)C(=O)N(C)C)c3c(=O)n(C)c(=O)n(C)c3n2)c1` (centres undefined), which Potency is on record?
Its Potency is “inactive”.

For `Cc1cc(O)c2c(c1)CC1C3CCC4CC(=O)CCC4(C)C3CC(=O)C21C` (centres undefined), which Potency is on record?
The Potency was inconclusive: 4.61 µM [cytotoxic, full curve].

Which Potency does the source give for `CN1CCN(S(=O)(=O)c2cccc(C(=O)Nc3cc(C(F)(F)F)ccc3N3CCCCC3)c2)CC1` here?
The Potency was inconclusive: 23.1 µM [cytotoxic, single point].

With `CC(=O)N/C(=C/C(C)C)c1ccccc1` as the molecule, how does the Potency read?
The Potency was “inactive”.

With `O=C(C[n+]1cccc(NC(=O)c2ccccc2)c1)c1ccc(NC(=O)c2ccccc2)cc1` as the molecule, how does the Potency read?
The Potency was inconclusive: 29.1 µM [cytotoxic, single point].

Which Potency does the source give for `Cc1nn(-c2ccccc2)c(C)c1/C=N/NC(=O)c1cc(-c2cccc3ccccc23)n[nH]1` here?
The Potency was “inactive”.

For `CC1=C(C(=O)Nc2cccnc2)C(c2ccc(F)cc2)n2nc(SCc3ccccc3)nc2N1` (centres undefined), which Potency is on record?
The Potency was “inactive”.

Which Potency does the source give for `Cc1nc2ccc(NC(=S)N3CCOCC3)cc2nc1C` here?
The Potency was “inactive”.

For `CCc1c(C)nc2ncnn2c1N1CCCC(C(=O)NCc2cccs2)C1` (centres undefined), which Potency is on record?
The Potency was inconclusive: 14.6 µM [cytotoxic, single point].

With `COc1ccc(C2(O)CCN(CC(=O)Nc3nc(-c4ccccc4)cs3)CC2)cc1` as the molecule, how does the Potency read?
Its Potency is inconclusive: 23.1 µM [cytotoxic, single point].

With `CCC(NC(=S)NCc1ccc(F)cc1)c1ccc(C(C)C)cc1` (centres undefined) as the molecule, how does the Potency read?
The Potency was inconclusive: 29.1 µM [cytotoxic, single point].

Which Potency does the source give for `COc1cc(NS(=O)(=O)c2ccc(C)c(C)c2)c(OC)cc1Cl` here?
Its Potency is inconclusive: 25.9 µM [cytotoxic, partial curve, poor fit].

Which Potency does the source give for `COc1ccc(N(CC(=O)NN=C2CCN(C)CC2)S(=O)(=O)c2ccc(NC(C)=O)cc2)cc1` here?
The Potency was “inactive”.

For `CCCn1c(C)cc(C(=O)COC(=O)c2nccnc2N)c1C`, which Potency is on record?
The Potency was inconclusive: 20.6 µM [rising, partial curve, poor fit].

For `CCOc1ccc(N=Nc2c(=O)[nH]n3c(=O)cc(C)[nH]c23)cc1`, which Potency is on record?
The Potency was active: 23.1 µM.

Which Potency does the source give for `COc1cc(CNc2ccc(CNc3ncn[nH]3)cc2)cc(Cl)c1OCc1ccccc1` here?
The Potency was inconclusive: 29.1 µM [cytotoxic, single point].

For `O=C(CNc1ccc2c(c1)OCO2)N/N=C\c1cn(Cc2ccccc2)c2ccccc12`, which Potency is on record?
Its Potency is inconclusive: 5.17 µM [cytotoxic, full curve].

For `O=C(c1ccc(Cl)cc1)c1ccc(OCC(=O)N2CCOCC2)cc1`, which Potency is on record?
The Potency was “inactive”.

For `Cc1ccc2c(c1)C(=O)C(=O)N2CCCOc1ccccc1C`, which Potency is on record?
Its Potency is inconclusive: 29.1 µM [cytotoxic, single point].

With `Cc1ccc(C)c(S(=O)(=O)N2CCN(C(=O)c3ccncc3)CC2)c1` as the molecule, how does the Potency read?
The Potency was “inactive”.

With `COC(=O)[C@@]12CCCCN1[C@H](c1ccc(-c3ccccc3)c(OC)c1)[C@H]1C(=O)N(C)C(=O)[C@H]12` as the molecule, how does the Potency read?
The Potency was inconclusive: 29.1 µM [cytotoxic, single point].

With `O=C(N/N=C/C(Br)=C\c1ccccc1)c1ccco1` as the molecule, how does the Potency read?
Its Potency is “inactive”.

Which Potency does the source give for `CCOc1ccccc1N1CCN(CC(=O)Nc2nccs2)CC1` here?
The Potency was “inactive”.

Which Potency does the source give for `O=C(NCCCN1CCCC1=O)c1cc(COc2ccc(F)cc2F)on1` here?
The Potency was inconclusive: 16.4 µM [rising, single point].

With `CN(Cc1ccc(Cl)cc1)C(=O)CCl` as the molecule, how does the Potency read?
The Potency was active: 16.4 µM.

With `CCOC(=O)c1nc(NNC(=O)c2ccc([N+](=O)[O-])cc2)sc1C` as the molecule, how does the Potency read?
Its Potency is active: 18.4 µM.

Which Potency does the source give for `CCOC(=O)N1CCC(Nc2nc3ccccc3nc2NS(=O)(=O)c2ccc(Cl)cc2)CC1` here?
Its Potency is inconclusive: 16.4 µM [cytotoxic, partial curve, poor fit].

Which Potency does the source give for `CCN(CC(=O)Nc1c(F)cccc1F)C(=O)c1cc(S(=O)(=O)N2CCOCC2)ccc1N1CCCC1` here?
The Potency was “inactive”.

Which Potency does the source give for `Cc1cc(Nc2nc3ccccc3nc2Cl)n(-c2ccccc2)n1` here?
Its Potency is inconclusive: 25.9 µM [cytotoxic, single point].

With `O=C(Nc1ncc(Cc2ccc(SC(F)F)cc2)s1)c1ccccc1` as the molecule, how does the Potency read?
Its Potency is active: 1.46 µM.

Which Potency does the source give for `CCOC(=O)C1CCN(S(=O)(=O)c2ccc(-n3cnnn3)c(C)c2)CC1` here?
Its Potency is “inactive”.

Which Potency does the source give for `O=C(Nc1ccccc1Cl)N1CCCN(c2nc(-c3ccccc3)ns2)CC1` here?
Its Potency is inconclusive: 16.4 µM [cytotoxic, partial curve].

For `COc1ccc(-c2ccc(C(=O)Nc3ccc4c(c3)OCO4)c3occc23)c(C)c1`, which Potency is on record?
The Potency was “inactive”.

For `O=S1(=O)CC=C(CSC(=S)NC2CCS(=O)(=O)C2)C1` (centres undefined), which Potency is on record?
Its Potency is inconclusive: 29.1 µM [cytotoxic, single point].

For `COc1cccc(N2CCN(C(=O)Cn3ncc4c3-c3ccccc3OC4)CC2)c1`, which Potency is on record?
Its Potency is “inactive”.

With `Cc1[nH]c2ccccc2c1C(=O)C(C)OC(=O)c1ccc([N+](=O)[O-])o1` (centres undefined) as the molecule, how does the Potency read?
The Potency was inconclusive: 29.1 µM [cytotoxic, single point].

With `COc1cc(C(=O)NCc2nnc(SCC(=O)Nc3nc4ccccc4s3)o2)cc(OC)c1OC` as the molecule, how does the Potency read?
Its Potency is inconclusive: 29.1 µM [rising, single point].
